According to PubChem BioAssay AID493014 (National Center for Advancing Translational Sciences (NCATS), 2011):
The other results are listed elsewhere or left out. Shown are side measurements of this screen, not its main read-out; they come without a call. The list favours compounds with an active or inconclusive main result. The note in brackets gives the kind of curve behind each potency; many fits are weak.

Assay: qHTS Assay to Find Inhibitors of Chronic Active B-Cell Receptor Signaling
Details: ABC-DLBCL IkBa-CBG/CBR reporter, luminescence ratio (green luciferase fused to IkBa over red control in TMD8 lymphoma cells), 4 h
How it was run: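 TMD8 ABC-DLBCL cells carrying doxycycline-inducible green luciferase fused to IkappaBalpha plus unfused red luciferase were exposed to compounds (up to 46 uM) for 4 hrs at 37C. Activity came from the overlap-corrected green/red luminescence ratio.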

[1] = measured here: CBR red luminescence, cell number
[2] = measured here: IkBa-CBG green luminescence

| SMILES | AC50 [1] | AC50 [2] |
| --- | --- | --- |
| CCn1c(=O)c(C(=O)Nc2ccsc2C(=O)OC)c(O)c2ccccc21 | 0.116 µM [falling, full curve] |  |
| CCOc1ccccc1N(C(=O)Nc1cccc(Cl)c1)C1=NC(C)CS1 (stereo not given) | 25.9 µM [rising, single point] |  |
| CCCOc1ccc(CCN2CCC(=O)NC2=O)cc1C | 14.1 µM [rising, partial curve, poor fit] |  |
| COc1cccc(C2NC(=O)NC(C)=C2C(=O)Nc2ccc(C)cc2)c1OC (stereo not given) | 25.1 µM [falling, single point] |  |
| CCCN(CCC)S(=O)(=O)c1ccc(NS(C)(=O)=O)cc1 | 8.2 µM [rising, partial curve, poor fit] |  |
| CC(=O)c1cccc(S(=O)(=O)N2CCC(C(=O)Oc3ccc(-c4nnco4)cc3)CC2)c1 | 6.51 µM [falling, partial curve] |  |
| CN(C)S(=O)(=O)NCc1ccc2c(c1)OCO2 | 0.731 µM [falling, partial curve, poor fit] |  |
| C/C(=N\S(=O)(=O)c1ccc(C)cc1)N1CCCCC1 | 17.8 µM [rising, single point] |  |
| Cc1cccc(NC(=O)c2ccc(C(=O)Nc3cccc(C)c3)nc2)c1 |  | 5.8 µM [falling, full curve] |
| CC12CCC(C(=O)NNc3ccc([N+](=O)[O-])cc3)(OC1=O)C2(C)C (stereo not given) | 2.24 µM [rising, partial curve, poor fit] |  |
| CCn1nc(C(=O)Nc2cccc(C(F)(F)F)c2)c(Cl)c1Cl | 2.51 µM [rising, partial curve, poor fit] |  |
| O=C(NCc1cccnc1)Nc1ccc(Br)cc1 | 0.794 µM [rising, full curve, poor fit] |  |
| O=C(COC(=O)c1ccc(Cl)nc1)Nc1nnc(-c2ccccc2)o1 | 14.6 µM [falling, partial curve] |  |
| O=C(N/N=C/c1ccc(O)cc1)c1cccc(N/N=C/c2ccc(O)cc2)c1 | 7.94 µM [falling, partial curve, poor fit] |  |
| Cc1c(Cl)cccc1NC(=O)CNC(=O)C1CCN(C(=O)Nc2ccccc2)CC1 | 29.1 µM [rising, single point] |  |
| Oc1ccc2[nH]cnc2c1CN1CCCCC1 | 0.517 µM [falling, full curve, poor fit] |  |
| O=C(Nc1cccn(Cc2c(F)cccc2Cl)c1=O)NC1CCCCC1 | 3.98 µM [falling, single point] |  |
| CCOC(=O)C1=C(N)N2C(=O)CSC2=C(C(=O)OC)C1 | 2.51 µM [falling, full curve, poor fit] |  |
| COc1ccccc1C(=O)Nc1nnc(-c2ccc(F)cc2)s1 | 8.91 µM [falling, partial curve] |  |
| CC1(C)Cc2cccc(C(=O)Nc3ccc(Cl)cc3)c2O1 | 1.26 µM [rising, full curve] |  |
| CC1=Nc2ccccc2/C1=C\c1sc(Nc2ccc(C)cc2)nc1O |  | 4.11 µM [falling, partial curve, poor fit] |

Given tab-delimited: three of the compounds above.
SMILES	AC50 [1]	AC50 [2]
CCn1c(=O)c(C(=O)Nc2ccsc2C(=O)OC)c(O)c2ccccc21	0.116 µM [falling, full curve]	
CCOc1ccccc1N(C(=O)Nc1cccc(Cl)c1)C1=NC(C)CS1 (stereo not given)	25.9 µM [rising, single point]	
CCCOc1ccc(CCN2CCC(=O)NC2=O)cc1C	14.1 µM [rising, partial curve, poor fit]	

Additional structures:

| SMILES | AC50 [1] | AC50 [2] |
| --- | --- | --- |
| COc1ccccc1/C=N\Nc1cn[nH]c(=O)c1Cl | 11.2 µM [falling, partial curve] |  |
| Cc1ccc(SCC(=O)Nc2cc([N+](=O)[O-])ccc2O)cc1 | 1.26 µM [falling, full curve, poor fit] |  |
| Fc1ccc(CSc2ccc(-c3cccs3)nn2)cc1 | 0.411 µM [rising, full curve, poor fit] |  |
| Cc1ccc(OCC(=O)Nc2ccc(C)c(S(=O)(=O)N3CCCCC3)c2)c([N+](=O)[O-])n1 | 4.11 µM [rising, full curve, poor fit] |  |
| O=C(COc1ccccc1)N1CCN(C(=O)c2ccc([N+](=O)[O-])cc2)CC1 | 12.6 µM [falling, partial curve] |  |
| CCOC(=O)C1=C(CS(=O)(=O)c2ccc(C)cc2)NC(=O)NC1c1ccc(O)c(OC)c1 (stereo not given) | 10 µM [rising, partial curve, poor fit] |  |
| CCOCCCNc1nc2c(C)cccn2c(=O)c1/C=C1\SC(=S)N(C(C)CC)C1=O (stereo not given) | 0.224 µM [rising, full curve] |  |
| Cc1ccc(C2(CCN)CCOC(C(C)C)C2)cc1 (stereo not given) | 29.1 µM [falling, single point] |  |
| O=C(CSc1nnnn1C1CCCCC1)N1CCN(C(=O)c2ccco2)CC1 | 7.08 µM [falling, partial curve, poor fit] |  |
| COc1ccc(S(=O)(=O)N2CCCC2CNC(=O)C(=O)Nc2ccc(C)cc2)cc1 (stereo not given) | 16.4 µM [falling, partial curve, poor fit] |  |
| Cc1ccc(C#CC[N+](C)(C)CC#Cc2ccccc2)cc1 | 35.5 µM [falling, single point] | 14.1 µM [rising, partial curve, poor fit] |
| Clc1cccc(-c2nnc(SC/C=C/c3ccccc3)n2Cc2ccco2)c1 | 18.4 µM [falling, single point] |  |
| O=S(=O)(NCCc1c[nH]c2ccccc12)c1ccccc1 | 5.62 µM [rising, full curve, poor fit] |  |
| CSc1nc2ccc(Br)cc2[nH]1 | 0.631 µM [rising, full curve] |  |
| O=C(CSc1nnc(NCc2ccccc2)s1)c1ccco1 | 2.24 µM [rising, partial curve, poor fit] |  |
| CCN1CCN(CC(=O)Nc2cc3c(cc2C(C)=O)OCO3)CC1 | 14.1 µM [rising, partial curve, poor fit] |  |
| CN1/C(=C\C(=O)Nc2ccc(Cl)cc2)C(C)(C)c2ccccc21 | 32.6 µM [falling, single point] | 16.4 µM [rising, partial curve, poor fit] |
| CC[C@]12c3[nH]c4ccc(Cl)cc4c3CCN1C(=O)[C@@H](CC(=O)NC/C=C(\C)CCC=C(C)C)C[C@@H]2C(=O)N1CCN(C(=O)c2ccco2)CC1 | 7.31 µM [falling, partial curve] |  |
| COCCn1c(C)cc(C(=O)CSc2nc(C)cc(C)c2C#N)c1C | 6.51 µM [rising, single point] |  |
| CSCCC(NC(=O)c1cccc(S(=O)(=O)N2CCOCC2)c1)c1nc2ccccc2[nH]1 (stereo not given) | 29.1 µM [rising, single point] |  |
| CN1CCC(=NNC(=O)c2ccco2)CC1 | 35.5 µM [falling, single point] |  |

| SMILES | AC50 [1] | AC50 [2] |
| --- | --- | --- |
| O=C(CSc1nnc(Cc2ccccc2)n1C1CCCCC1)N1CCOCC1 | 29.1 µM [falling, single point] |  |
| N=c1c(C(=O)NCCc2ccccc2)cc2c(=O)n3ccccc3nc2n1CC1CCCO1 (stereo not given) | 14.1 µM [falling, partial curve] |  |
| CCOc1cccc(N)c1 | 9.2 µM [falling, partial curve] | 9.2 µM [rising, partial curve, poor fit] |
| COc1ccc(CNC(=O)c2cc3c(=O)n4ccccc4nc3n(CC3CCCO3)c2=N)cc1 (stereo not given) | 0.00651 µM [rising, full curve, poor fit] |  |
| CN(C)c1cc2c(cc1NS(=O)(=O)c1ccccc1)n(C)c(=O)n2C | 35.5 µM [rising, single point] |  |
| CCNCc1cc(OCC)c(OCC(=O)NCCc2ccccc2)cc1Cl | 4.47 µM [falling, full curve] |  |
| Cc1cccc2sc(N(CCCN(C)C)C(=O)c3ccco3)nc12 | 28.2 µM [falling, single point] |  |
| CCN(CC)C(=O)Cn1c(=O)n(CCC(=O)Nc2ccc(F)cc2)c(=O)c2sccc21 | 3.98 µM [falling, partial curve, poor fit] |  |
| O=CN1Cc2[nH]c3ccccc3c2N(c2ccc(Cl)cc2)C1=O | 4.47 µM [falling, partial curve, poor fit] |  |
| O=C(/C=C/c1cccc(Oc2ccccc2)c1)N1CCOCC1 | 35.5 µM [rising, single point] |  |
| O=C(Cn1ccc([N+](=O)[O-])n1)c1ccccc1 | 1.26 µM [rising, full curve] |  |
| O=C(Nc1nnc(SCc2ccc(F)cc2)s1)c1ccc2ncsc2c1 | 8.2 µM [falling, partial curve] |  |
| COc1ccc(C(=O)Nc2ccc(OCC(F)(F)C(F)F)c(C(F)(F)F)c2)cc1OC | 17.8 µM [falling, single point] |  |
| CSC1=C(C#N)C2(CCCC2)C(C#N)=C(N)N1 | 0.562 µM [falling, full curve, poor fit] |  |
| COc1ccc(C(=O)Nc2nc3c(s2)CCCC3)cc1S(=O)(=O)N1CCCc2ccccc21 | 10.3 µM [falling, partial curve] |  |
| COc1ccc(-c2nn(-c3ccccc3)cc2C(=O)NC2CC2)cc1 | 6.51 µM [rising, partial curve] |  |
| COc1ccc(C(=O)O)cc1NC(=S)NC(=O)CSc1ccc(Cl)cc1 | 7.94 µM [falling, partial curve, poor fit] |  |
| CCN(CC)CCN(C(=O)c1ccc(S(=O)(=O)N(C)C2CCCCC2)cc1)c1nc2c(C)cccc2s1 | 11.2 µM [falling, partial curve, poor fit] |  |
| C#CCOCCOCCOCCNc1nc(N2CCN(C(=O)[C@H]([C@@H](C)CC)n3cc([C@@H](N)Cc4ccc(O)cc4)nn3)CC2)nc(N2CCN(C(=O)[C@H](Cc3ccc(O)cc3)n3cc([C@@H](N)C(C)CC)nn3)CC2)n1 (stereo not given in full) | 1.12 µM [rising, partial curve, poor fit] |  |
| CCCSc1nnc(Sc2nnnn2-c2ccccc2)s1 |  | 14.6 µM [falling, partial curve] |
